Test results taken from US20240174755A1 (published 2024).
These are yes or no findings as the source states them, for the method shown. Some entries that bind do so weakly or less than the wild type. Values belong to the binder of their own block, whether it stands above or below them.

Key:
[1] = target: human PDGFR β extra-cellular domain (ECD), Fc- and His-tagged (Sino Biological) (human) (UniProt P09619); assay: biotin-streptavidin ELISA, human PDGFR β ECD coated at 2 ug/ml
[2] = target: human PDGFR β extra-cellular domain (ECD), Fc- and His-tagged (Sino Biological) (human) (UniProt P09619); assay: biotin-streptavidin ELISA on coated human PDGFR β ECD
[3] = target: human PDGFR β extra-cellular domain (ECD), Fc- and His-tagged (Sino Biological) (human) (UniProt P09619); assay: ELISA on human PDGFRβ extracellular domain after 3 freeze-thaw cycles, streptavidin-HRP or anti-VHH detection
[4] = target: T1, mouse PDGFR β ECD (R&D Systems) (mouse, UniProt P05622 32-531); assay: biotin-streptavidin ELISA, mouse PDGFR β ECD coated at 4 ug/ml
T1 construct: extracellular domain; Bought; also called mECD; mouse ECD
T1 sequence (looked up): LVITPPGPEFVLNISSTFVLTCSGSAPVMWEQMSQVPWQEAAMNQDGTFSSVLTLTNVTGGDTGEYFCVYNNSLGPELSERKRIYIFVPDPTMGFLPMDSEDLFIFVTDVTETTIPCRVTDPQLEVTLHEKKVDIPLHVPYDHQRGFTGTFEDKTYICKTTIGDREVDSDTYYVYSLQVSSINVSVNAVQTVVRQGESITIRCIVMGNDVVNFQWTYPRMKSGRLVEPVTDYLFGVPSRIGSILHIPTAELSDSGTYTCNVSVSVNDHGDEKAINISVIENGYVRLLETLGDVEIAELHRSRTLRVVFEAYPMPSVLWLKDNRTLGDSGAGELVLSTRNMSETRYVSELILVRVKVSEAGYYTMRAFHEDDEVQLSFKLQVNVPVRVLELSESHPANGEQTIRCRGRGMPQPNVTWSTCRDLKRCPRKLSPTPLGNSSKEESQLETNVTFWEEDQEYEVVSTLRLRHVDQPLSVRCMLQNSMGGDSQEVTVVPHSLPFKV
Description: In this example, the binding affinity of biotin-conjugated VHHs 1B5 and 1E12 to either human or mouse PDGFR β extra-cellular domain (ECD) was assessed using biotin-streptavidin ELISA. Human or mouse PDGFR β ECD was coated on immunoassay wells, where 1B5-biotin or 1E12-biotin were captured. Binding was detected using streptavidin-HRP and ODP as a substrate.
ELISA Method 96-well maxisorp (Nunc) immunosorp plates were coated with 1 ug/ml or 2 ug/ml of PDGFR β extracellular domain (ECD; Fc- and His-tagged, Sino Biological) or mouse PDGFR β ECD (R&D Systems) 4 ug/ml in PBS, 100 ul per well, at 4C overnight. Wells were washed thrice in PBS. Unspecific binding sites were blocked in 4% BSA/PBS for 1h at RT, followed by washing thrice in PBS. VHHs 1B5-biotin or 1E12-biotin, diluted at 0.01-100 nM in 1% BSA/PBS, was allowed to bind on ECD for 1 h at RT, followed by washing thrice in PBS. Streptavidin-horseradish peroxidase (HRP; GeneTex) was diluted 1:10,000 in 1% BSA/PBS and was incubated for 1 h at RT. […] Optical density was measured at 492 nm on a Synergy H1 microplate reader (BioTek).

[5] = target: T1, mouse PDGFR β ECD (R&D Systems); assay: biotin-streptavidin ELISA on coated mouse PDGFR β ECD

- binding [3]: binds
B2: 1D4-biotin (VHH)
VHH: EVQLVESGGGLVQAGDSLRLSCAVSGRAQSRDVVGWFRQAPGKEREFLALVTRSYSTYYGASVKGRFTISRDNAKNTVHLEMNSLKPEDTGVYYCAADQGFCSGSGCYDWRTFHVWGQGTQVTVSS
modifications: Biotin-maleimide on the C-terminal cysteine of the C-Direct tag
notes: ID NO: 27 or 28; also called biotin-conjugated 1D4; VHH-biotin; not shown: C-terminal C-Direct tag with a free cysteine and an EPEA purification tag (vector pYQVQ11)

- binding [3]: binds
B4: 1H4-biotin (VHH)
VHH: EVQLVESGGGLVQPGGSLRVSCSASWRTGNPFAMAWFRQAPGKERELIARISWTAGRTEYAESAKGRFTISRDVAKKTMYLQMNSLTPEDTGVYFCAARFVPSSGPTVFDTWGQGTQVTVSS
modifications: Biotin-maleimide on the C-terminal cysteine of the C-Direct tag
notes: ID NO: 29 or 30; also called biotin-conjugated 1H4; VHH-biotin; not shown: C-terminal C-Direct tag with a free cysteine and an EPEA purification tag (vector pYQVQ11)

Further lines, the binder ahead of its results:

B1: 1E12-biotin (VHH)
VHH: EVQLVESGGGLVQAGGSLRLSCAPSERSFSAYLMGWFRQAQGKEREFVAAWRWPTSTTYYSDSGKGRFTITGDNAKNTVELEMNSLKPEDTAVYYCAARRGILYGPATSPTAYDFWGQGTQVTVSS
modifications: Biotin-maleimide on the C-terminal cysteine of the C-Direct tag
notes: ID NO: 31 or 32; also called VHH 1E12-biotin; biotin-conjugated 1E12; not shown: C-terminal C-Direct tag with a free cysteine and an EPEA purification tag (vector pYQVQ11)
- binding [1]: binds
- binding [2]: binds
- binding [3]: binds
- binding [4]: binds
- binding [5]: binds

B3: 1B5-biotin (VHH)
VHH: EVQLVESGGGLVQPGGSLRLSCVASGFSFSESAMSWVRQAPGKGLEWLSGISSGGGRSTTYAESVEGRFTISRDDAKNTLMLQMNSLKSEDTAVYYCAKTGYCSGYNCNFAPRGQGTQVTVSS
modifications: Biotin-maleimide on the C-terminal cysteine of the C-Direct tag
notes: ID NO: 25 or 26; also called VHH 1B5-biotin; biotin-conjugated 1B5; not shown: C-terminal C-Direct tag with a free cysteine and an EPEA purification tag (vector pYQVQ11)
- binding [2]: binds
- binding [3]: binds
- binding [4]: binds
- binding [5]: binds
